The test addresses Insulin-like growth factor 2 mRNA-binding protein 2 (human (endogenous in TPC1 and CAL62)) (UniProt Q9Y6M1). Briefly: co-IP; lysates of TPC1 and CAL62 cells (Cell lysis buffer for Western and IP, Beyotime P0013, with PMSF, phosphatase and protease inhibitors); lysate precleared with rabbit IgG; antibody-conjugated Protein A/G magnetic beads, 4 h at 4 °C; three washes with IP lysis buffer; Western blot.

The chains behind the UniProt entries cited, without tags or fusion partners.
UniProt Q9Y6M1: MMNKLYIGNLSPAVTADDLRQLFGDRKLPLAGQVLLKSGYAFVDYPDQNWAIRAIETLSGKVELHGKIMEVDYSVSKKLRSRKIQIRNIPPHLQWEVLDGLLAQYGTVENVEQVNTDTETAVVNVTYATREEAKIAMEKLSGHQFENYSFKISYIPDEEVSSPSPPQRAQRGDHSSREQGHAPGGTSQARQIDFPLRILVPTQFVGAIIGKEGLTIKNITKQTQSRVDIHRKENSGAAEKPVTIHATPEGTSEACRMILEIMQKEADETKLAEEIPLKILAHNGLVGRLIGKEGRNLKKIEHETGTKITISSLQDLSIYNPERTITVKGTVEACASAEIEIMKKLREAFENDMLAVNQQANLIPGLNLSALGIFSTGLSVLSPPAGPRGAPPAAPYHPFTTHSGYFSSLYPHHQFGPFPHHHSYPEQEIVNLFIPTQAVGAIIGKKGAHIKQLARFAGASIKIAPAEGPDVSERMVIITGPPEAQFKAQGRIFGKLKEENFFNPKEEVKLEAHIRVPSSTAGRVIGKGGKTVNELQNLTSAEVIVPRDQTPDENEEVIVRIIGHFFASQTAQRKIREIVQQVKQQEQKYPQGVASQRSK
UniProt A5YKK6: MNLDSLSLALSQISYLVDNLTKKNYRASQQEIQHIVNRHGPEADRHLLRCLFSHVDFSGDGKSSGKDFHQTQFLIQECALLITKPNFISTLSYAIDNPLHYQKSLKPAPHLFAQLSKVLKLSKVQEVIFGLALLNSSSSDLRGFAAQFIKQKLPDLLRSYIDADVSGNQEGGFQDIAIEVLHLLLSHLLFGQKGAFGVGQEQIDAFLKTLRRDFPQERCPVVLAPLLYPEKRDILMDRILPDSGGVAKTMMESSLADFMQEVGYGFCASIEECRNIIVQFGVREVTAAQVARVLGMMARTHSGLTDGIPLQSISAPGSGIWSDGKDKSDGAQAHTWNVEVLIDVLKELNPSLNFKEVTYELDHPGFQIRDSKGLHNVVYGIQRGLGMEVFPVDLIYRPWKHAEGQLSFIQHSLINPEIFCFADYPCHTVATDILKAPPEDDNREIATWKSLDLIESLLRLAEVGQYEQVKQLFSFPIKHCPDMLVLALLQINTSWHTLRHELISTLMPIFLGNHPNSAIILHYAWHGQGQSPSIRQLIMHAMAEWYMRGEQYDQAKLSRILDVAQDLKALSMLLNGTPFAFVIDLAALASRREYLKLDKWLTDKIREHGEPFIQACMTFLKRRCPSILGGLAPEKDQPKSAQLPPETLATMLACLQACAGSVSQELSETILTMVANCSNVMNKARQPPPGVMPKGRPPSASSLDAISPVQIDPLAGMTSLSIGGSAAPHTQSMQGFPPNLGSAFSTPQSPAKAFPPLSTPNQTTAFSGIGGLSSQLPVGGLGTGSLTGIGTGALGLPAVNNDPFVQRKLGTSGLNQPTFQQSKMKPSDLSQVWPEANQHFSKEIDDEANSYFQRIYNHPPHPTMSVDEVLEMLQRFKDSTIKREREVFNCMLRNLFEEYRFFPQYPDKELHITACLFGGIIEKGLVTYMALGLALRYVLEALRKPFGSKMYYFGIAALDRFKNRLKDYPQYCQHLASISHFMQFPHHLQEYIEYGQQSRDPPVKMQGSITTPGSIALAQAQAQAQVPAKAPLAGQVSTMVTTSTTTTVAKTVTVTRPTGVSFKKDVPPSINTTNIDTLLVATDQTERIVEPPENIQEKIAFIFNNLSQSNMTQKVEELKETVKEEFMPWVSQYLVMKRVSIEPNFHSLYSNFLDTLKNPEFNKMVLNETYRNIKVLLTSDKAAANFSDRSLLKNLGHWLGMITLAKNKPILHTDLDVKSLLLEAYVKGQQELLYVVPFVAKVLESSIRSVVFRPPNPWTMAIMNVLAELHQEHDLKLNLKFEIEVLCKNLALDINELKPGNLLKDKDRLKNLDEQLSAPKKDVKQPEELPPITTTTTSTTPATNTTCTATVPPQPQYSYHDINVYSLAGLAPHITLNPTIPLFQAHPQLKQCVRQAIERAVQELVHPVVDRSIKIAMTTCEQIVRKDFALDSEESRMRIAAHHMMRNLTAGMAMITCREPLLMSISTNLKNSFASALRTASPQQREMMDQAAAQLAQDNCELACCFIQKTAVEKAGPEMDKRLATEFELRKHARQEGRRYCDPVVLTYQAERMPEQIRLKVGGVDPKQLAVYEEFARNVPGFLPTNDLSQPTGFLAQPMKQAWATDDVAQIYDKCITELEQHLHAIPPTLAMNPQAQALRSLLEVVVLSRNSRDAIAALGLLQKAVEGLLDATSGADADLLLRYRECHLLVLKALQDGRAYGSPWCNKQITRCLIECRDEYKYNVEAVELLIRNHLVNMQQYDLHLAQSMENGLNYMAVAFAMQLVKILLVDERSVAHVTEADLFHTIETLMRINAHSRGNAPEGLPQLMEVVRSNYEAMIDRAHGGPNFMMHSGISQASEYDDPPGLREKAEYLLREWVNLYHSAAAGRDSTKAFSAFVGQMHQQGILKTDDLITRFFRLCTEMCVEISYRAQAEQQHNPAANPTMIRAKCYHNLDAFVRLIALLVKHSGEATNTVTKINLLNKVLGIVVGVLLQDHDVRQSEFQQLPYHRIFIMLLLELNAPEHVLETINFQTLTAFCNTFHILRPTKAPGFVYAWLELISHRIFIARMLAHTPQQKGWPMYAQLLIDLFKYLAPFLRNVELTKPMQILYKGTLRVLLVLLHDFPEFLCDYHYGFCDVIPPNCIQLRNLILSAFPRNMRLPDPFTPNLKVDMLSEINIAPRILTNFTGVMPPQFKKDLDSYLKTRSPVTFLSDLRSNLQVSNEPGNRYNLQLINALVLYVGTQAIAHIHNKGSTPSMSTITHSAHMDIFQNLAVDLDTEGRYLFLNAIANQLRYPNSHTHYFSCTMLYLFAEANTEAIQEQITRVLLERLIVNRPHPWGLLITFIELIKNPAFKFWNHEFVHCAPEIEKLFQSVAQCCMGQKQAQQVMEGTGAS

Results are given in words; binding and its absence hold for the method and conditions named. Binding seen in cells or lysates may run through a third protein. Some results given as binding are weak or reduced against the parent protein; the word gives no strength.

For “CNOT1, scaffold subunit of the CCR4-NOT deadenylase complex (from UniProt A5YKK6 1-2376)”, the binding entry was “binds”.

The values above are taken from paper PMC12780945.
